Test results reported in PMC12431657, “Discovery and mechanistic insights of dibenzoylmethane as a broad spectrum inhibitor of coronavirus” (PLOS Pathogens, 2025).
This list holds what a sample rich in strong results left over.

Key:
[1] = test system: HCoV-229E; design: species or system Huh-7; HTS, protection from HCoV-229E induced cell death, luminescent cell viability (CellCounting-Lite 2.0), inhibition rate; details: 24 h post infection, 1 h compound pre-incubation; 10 µM; inhibitor
[2] = test system: HCoV-OC43; design: species or system RD; HTS, protection from HCoV-OC43 induced cell death, luminescent cell viability (CellCounting-Lite 2.0), inhibition rate; details: 24 h post infection, 1 h compound pre-incubation; 10 µM; inhibitor

| Structure (SMILES) | 229E Inhibition rate [1] [%] | OC43 Inhibition rate [2] [%] |
| --- | --- | --- |
| CN[C@@H]1C[C@H]2O[C@@](C)([C@@H]1OC)n1c3ccccc3c3c4c(c5c6ccccc6n2c5c31)C(=O)NC4 [Staurosporine] | 11.8 | -2.4 |
| NCCCC(=O)O [γ-Aminobutyric acid] | 12.4 | 3.9 |
